Reference: the supplement of paper PMC10849652
This is one part of the list.

By UniProt entry, the sequences of proteins in these tests, tags left out. Where a name states a change or a piece, a line headed by the entry shows the natural chain unless it says otherwise.
UniProt Q5VW32: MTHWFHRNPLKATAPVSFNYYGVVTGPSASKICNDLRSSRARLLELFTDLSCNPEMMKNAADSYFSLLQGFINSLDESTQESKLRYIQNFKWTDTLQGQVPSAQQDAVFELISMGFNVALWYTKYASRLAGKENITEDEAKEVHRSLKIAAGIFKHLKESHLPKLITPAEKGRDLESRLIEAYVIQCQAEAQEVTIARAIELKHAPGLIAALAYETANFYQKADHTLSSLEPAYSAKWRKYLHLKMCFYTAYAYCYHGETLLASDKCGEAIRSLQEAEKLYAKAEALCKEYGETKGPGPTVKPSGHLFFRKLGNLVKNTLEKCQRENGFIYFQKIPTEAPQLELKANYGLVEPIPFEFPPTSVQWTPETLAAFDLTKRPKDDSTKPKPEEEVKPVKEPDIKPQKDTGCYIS
UniProt Q6W2J9: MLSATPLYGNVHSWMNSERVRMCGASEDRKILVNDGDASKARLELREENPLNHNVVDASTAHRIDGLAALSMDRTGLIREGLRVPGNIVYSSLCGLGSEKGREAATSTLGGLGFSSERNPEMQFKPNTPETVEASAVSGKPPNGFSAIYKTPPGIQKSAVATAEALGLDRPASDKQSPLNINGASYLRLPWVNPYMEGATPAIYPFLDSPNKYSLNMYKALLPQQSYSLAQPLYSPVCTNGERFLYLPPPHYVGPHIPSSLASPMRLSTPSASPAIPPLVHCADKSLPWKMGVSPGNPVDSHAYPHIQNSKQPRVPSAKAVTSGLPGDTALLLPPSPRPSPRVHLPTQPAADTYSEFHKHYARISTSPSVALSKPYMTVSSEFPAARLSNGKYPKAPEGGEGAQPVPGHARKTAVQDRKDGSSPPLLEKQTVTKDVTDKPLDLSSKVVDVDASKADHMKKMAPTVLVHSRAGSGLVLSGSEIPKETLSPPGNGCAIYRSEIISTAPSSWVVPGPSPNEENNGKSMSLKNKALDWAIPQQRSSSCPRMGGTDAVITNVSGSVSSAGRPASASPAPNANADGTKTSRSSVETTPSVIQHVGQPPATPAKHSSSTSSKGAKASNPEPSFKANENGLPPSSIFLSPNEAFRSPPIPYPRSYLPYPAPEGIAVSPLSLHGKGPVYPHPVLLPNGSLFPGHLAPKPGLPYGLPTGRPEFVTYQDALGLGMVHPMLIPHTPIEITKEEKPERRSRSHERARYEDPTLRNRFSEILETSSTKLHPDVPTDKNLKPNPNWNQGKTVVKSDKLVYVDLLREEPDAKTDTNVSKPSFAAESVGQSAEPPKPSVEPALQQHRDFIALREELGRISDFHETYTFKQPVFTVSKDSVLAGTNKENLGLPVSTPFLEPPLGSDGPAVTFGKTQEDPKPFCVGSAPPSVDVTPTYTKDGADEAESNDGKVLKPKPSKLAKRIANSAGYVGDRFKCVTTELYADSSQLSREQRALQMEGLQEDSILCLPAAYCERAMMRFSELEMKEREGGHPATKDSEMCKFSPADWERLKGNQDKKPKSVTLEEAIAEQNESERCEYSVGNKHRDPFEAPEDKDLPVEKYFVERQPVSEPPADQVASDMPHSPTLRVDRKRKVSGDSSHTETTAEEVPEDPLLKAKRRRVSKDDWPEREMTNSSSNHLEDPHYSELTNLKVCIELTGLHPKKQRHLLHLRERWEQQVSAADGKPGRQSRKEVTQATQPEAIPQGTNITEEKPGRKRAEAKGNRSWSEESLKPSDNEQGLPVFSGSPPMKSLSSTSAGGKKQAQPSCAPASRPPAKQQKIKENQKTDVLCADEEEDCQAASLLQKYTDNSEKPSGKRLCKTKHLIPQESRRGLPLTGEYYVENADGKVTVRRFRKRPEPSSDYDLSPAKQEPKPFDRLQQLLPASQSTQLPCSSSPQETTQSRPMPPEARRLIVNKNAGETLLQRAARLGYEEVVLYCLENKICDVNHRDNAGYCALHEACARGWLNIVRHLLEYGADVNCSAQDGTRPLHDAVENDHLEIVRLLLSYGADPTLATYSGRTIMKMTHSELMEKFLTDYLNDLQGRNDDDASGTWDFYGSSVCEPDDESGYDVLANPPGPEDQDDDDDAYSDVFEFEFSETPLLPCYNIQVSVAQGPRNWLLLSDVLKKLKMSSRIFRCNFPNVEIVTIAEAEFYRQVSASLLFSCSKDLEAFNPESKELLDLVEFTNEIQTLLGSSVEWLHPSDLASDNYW
UniProt Q99728: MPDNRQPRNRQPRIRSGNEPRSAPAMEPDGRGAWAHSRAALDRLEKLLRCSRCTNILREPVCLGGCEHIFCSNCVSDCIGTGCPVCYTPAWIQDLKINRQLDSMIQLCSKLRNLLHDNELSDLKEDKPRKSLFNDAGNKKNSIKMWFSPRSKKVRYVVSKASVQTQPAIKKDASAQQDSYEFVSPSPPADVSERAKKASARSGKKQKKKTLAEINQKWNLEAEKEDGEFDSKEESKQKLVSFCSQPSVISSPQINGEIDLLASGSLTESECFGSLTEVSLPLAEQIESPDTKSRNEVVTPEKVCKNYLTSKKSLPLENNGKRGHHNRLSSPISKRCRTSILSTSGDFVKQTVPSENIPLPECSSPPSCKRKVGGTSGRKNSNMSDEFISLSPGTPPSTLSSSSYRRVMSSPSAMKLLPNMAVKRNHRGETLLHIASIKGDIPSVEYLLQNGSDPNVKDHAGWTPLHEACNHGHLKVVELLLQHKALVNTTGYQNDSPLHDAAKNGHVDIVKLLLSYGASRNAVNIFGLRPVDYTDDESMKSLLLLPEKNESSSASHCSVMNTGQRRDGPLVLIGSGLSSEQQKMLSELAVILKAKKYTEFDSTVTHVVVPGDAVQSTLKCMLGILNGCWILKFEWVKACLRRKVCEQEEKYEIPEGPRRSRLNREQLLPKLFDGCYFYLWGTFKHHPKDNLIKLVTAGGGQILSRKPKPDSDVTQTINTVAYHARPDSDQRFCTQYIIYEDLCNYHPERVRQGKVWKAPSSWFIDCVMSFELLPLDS
UniProt P11274: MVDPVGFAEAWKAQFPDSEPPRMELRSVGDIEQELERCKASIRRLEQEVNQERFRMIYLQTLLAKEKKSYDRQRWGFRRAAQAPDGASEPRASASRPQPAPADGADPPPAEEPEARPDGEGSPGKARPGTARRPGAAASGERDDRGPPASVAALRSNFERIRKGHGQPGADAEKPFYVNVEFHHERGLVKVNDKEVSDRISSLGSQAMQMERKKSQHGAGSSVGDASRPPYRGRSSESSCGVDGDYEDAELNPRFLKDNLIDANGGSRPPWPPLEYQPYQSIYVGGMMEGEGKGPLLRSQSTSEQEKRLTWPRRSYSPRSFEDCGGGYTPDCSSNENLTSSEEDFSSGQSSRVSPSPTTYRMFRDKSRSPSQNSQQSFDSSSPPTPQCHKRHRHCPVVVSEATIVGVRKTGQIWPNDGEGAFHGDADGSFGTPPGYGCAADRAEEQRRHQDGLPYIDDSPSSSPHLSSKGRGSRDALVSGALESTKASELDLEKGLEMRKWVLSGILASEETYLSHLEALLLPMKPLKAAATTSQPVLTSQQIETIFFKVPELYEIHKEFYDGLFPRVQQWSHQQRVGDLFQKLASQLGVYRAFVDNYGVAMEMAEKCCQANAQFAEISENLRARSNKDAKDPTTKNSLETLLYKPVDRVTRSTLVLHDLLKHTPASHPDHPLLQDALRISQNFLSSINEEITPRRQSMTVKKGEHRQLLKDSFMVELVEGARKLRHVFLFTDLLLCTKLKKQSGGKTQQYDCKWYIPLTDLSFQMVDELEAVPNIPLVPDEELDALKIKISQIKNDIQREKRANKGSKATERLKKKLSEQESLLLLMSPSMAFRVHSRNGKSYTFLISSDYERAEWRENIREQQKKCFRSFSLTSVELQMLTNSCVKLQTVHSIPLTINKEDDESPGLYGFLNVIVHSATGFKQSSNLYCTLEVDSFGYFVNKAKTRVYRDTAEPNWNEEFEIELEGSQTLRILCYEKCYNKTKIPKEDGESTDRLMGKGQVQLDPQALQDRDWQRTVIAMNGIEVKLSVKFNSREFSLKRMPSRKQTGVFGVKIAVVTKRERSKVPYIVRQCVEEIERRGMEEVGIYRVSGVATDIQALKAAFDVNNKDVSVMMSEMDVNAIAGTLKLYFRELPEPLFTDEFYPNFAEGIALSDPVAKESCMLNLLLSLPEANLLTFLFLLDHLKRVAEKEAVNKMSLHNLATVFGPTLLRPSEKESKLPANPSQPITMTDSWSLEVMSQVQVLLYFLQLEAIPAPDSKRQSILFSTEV
UniProt Q8WUW1: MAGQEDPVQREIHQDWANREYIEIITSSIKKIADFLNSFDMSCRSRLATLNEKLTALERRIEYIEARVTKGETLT
UniProt Q9H6U6: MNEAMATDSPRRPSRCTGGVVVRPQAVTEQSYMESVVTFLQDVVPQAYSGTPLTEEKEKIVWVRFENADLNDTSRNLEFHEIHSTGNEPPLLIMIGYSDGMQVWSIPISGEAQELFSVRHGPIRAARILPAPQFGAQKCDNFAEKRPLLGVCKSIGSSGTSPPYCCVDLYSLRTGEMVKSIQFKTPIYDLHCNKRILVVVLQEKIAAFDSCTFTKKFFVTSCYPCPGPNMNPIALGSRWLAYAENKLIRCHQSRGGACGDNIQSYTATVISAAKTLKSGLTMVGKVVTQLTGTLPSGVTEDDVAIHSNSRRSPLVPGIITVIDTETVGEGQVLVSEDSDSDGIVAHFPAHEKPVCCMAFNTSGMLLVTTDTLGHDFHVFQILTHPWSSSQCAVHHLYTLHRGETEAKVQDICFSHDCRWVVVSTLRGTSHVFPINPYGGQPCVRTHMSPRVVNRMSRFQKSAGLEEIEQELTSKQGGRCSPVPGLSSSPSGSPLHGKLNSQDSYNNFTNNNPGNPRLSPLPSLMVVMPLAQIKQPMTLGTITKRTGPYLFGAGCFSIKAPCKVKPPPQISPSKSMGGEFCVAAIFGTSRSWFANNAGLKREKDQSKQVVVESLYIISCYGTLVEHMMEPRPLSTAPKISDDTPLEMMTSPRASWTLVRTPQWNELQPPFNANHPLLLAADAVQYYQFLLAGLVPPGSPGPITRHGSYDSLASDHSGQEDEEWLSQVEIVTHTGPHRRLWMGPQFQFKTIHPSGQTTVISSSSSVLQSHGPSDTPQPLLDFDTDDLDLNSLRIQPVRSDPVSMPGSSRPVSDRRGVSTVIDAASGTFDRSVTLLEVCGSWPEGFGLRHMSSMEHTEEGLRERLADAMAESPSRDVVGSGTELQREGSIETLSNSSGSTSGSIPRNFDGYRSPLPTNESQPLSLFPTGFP
UniProt Q9H3K6: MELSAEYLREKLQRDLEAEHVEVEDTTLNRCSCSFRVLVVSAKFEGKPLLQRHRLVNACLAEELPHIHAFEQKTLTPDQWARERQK
UniProt Q9BXH1: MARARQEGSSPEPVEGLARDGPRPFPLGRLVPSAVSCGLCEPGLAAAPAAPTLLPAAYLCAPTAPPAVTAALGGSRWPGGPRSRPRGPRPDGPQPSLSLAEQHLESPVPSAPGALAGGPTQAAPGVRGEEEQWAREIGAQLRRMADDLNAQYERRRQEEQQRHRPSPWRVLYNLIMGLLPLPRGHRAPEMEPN
UniProt Q92560: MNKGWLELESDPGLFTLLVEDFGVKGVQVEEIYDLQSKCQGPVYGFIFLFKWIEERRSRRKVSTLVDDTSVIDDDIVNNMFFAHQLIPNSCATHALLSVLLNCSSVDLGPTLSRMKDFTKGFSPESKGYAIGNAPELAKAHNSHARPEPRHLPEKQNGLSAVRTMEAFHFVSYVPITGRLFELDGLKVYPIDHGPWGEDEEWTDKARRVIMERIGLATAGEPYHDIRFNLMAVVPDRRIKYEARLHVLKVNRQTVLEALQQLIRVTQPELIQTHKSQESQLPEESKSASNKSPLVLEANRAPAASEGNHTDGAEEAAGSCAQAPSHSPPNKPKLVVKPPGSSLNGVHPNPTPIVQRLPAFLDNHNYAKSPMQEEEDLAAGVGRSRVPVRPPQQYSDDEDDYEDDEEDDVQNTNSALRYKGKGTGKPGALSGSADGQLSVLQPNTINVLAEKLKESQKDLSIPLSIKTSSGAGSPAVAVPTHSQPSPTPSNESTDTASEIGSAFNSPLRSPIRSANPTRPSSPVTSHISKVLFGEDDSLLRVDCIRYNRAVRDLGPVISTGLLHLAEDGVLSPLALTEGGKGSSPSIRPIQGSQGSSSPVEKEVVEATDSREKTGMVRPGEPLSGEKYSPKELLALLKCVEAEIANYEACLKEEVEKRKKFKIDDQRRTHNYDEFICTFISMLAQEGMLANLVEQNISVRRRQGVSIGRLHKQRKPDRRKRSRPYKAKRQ
UniProt O75531: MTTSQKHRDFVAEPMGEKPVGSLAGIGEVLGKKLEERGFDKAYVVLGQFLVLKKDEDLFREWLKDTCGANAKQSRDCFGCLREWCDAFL
UniProt Q8WY22: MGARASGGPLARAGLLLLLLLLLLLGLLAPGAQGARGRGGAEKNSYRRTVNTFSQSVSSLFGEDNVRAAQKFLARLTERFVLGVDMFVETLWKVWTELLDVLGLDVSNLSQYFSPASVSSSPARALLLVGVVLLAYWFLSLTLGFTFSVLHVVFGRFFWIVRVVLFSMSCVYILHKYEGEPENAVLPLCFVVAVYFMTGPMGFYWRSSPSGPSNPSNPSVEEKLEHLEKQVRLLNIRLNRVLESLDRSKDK

Compound: Cc1sc2c(c1C)C(c1ccc(Cl)cc1)=N[C@@H](CC(=O)OC(C)(C)C)c1nnc(C)n1-2
Experiment: log2 fold change, soluble protein after heating vs DMSO (PISA); higher = thermal stabilisation; K562 lysate, 10 uM; active = over 0.2 and 3.5 SD of the protein, either way, in both replicates (recomputed)
Procedure, shortened: (§1)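 Log-two fold change in thermal stability relative to solvent controls is reported from duplicates. For each sample, crude K562 extract from dounce-homogenised pellets in PBS pH 7.4 with 1 mM MgCl2, at 1 mg/mL protein, was treated with 10 μM compound for 30 min. Aliquots heated for 3 min across 48°C-58°C were pooled, brought to 0.5% NP-40 at 4°C and cleared at 21,000xg for 90 min. The supernatant was quantified by TMTpro 16plex LC-MS/MS with channel sums equalised.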

| Target | log2 fold change |
| --- | --- |
| BCL2L12 (UniProt Q9HB09) | inactive: -0.011 |
| BAG4 (UniProt O95429) | inactive: 0.03 |
| BPHL (UniProt Q86WA6) | inactive: 0.158 |
| BLOC1S2 (UniProt Q6QNY1) | inactive: -0.096 |
| BCL9L (UniProt Q86UU0) | inactive: -0.047 |
| BLOC1S6 (UniProt Q9UL45) | inactive: -0.046 |
| BROX (UniProt Q5VW32) | inactive: 0.001 |
| BAIAP2L1 (UniProt Q9UHR4) | inactive: 0.008 |
| BLOC1S3 (UniProt Q6QNY0) | inactive: 0.057 |
| BNIP1 (UniProt Q12981) | inactive: 0.018 |
| BPNT1 (UniProt A6NF51) | inactive: -0.197 |
| BCOR (UniProt Q6W2J9) | inactive: -0.02 |
| BPTF (UniProt Q12830) | inactive: -0.076 |
| BAG2 (UniProt O95816) | inactive: 0.017 |
| BTF3L4 (UniProt Q96K17) | inactive: -0.058 |
| BARD1 (UniProt Q99728) | inactive: -0.011 |
| BCS1L (UniProt Q9Y276) | inactive: 0.048 |
| BRD4 (UniProt O60885) | active: 0.415 |
| BICD2 isoform 2 (UniProt Q8TD16) | inactive: -0.035 |

| Target | log2 fold change |
| --- | --- |
| BLOC1S5 (UniProt Q8TDH9) | inactive: 0.044 |
| BCR (UniProt P11274) | inactive: 0.007 |
| BSDC1 (UniProt Q9NW68) | inactive: -0.004 |
| BRK1 isoform 2 (UniProt Q8WUW1) | inactive: 0.019 |
| BAG1 (UniProt Q99933) | inactive: 0.028 |
| BCAS3 isoform 8 (UniProt Q9H6U6) | inactive: 0.019 |
| BOLA2 (UniProt Q9H3K6) | inactive: 0.034 |
| BRD3 (UniProt Q15059) | active: 0.5 |
| BBC3 (UniProt Q9BXH1) | inactive: -0.126 |
| BPGM (UniProt P07738) | inactive: 0.051 |
| BAD (UniProt Q92934) | inactive: -0.04 |
| BAZ1A (UniProt Q9NRL2) | inactive: 0.036 |
| BAP1 (UniProt Q92560) | inactive: 0.043 |
| BAG3 (UniProt O95817) | inactive: -0.001 |
| BANF1 (UniProt O75531) | inactive: -0.014 |
| BCL2L13 (UniProt Q9BXK5) | inactive: -0.013 |
| BRI3BP (UniProt Q8WY22) | inactive: 0.019 |
| BOP1 (UniProt Q14137) | inactive: 0.002 |

Compound: c1ccc([C@@H]2C[C@H]2NC2CCNCC2)cc1
Experiment: as above
Procedure, shortened: as §1

| Target | log2 fold change |
| --- | --- |
| BCL2L12 (UniProt Q9HB09) | inactive: -0.044 |
| BAG4 (UniProt O95429) | inactive: 0.003 |
| BPHL (UniProt Q86WA6) | inactive: 0.014 |
| BLOC1S2 (UniProt Q6QNY1) | inactive: -0.091 |
| BCL9L (UniProt Q86UU0) | inactive: 0.005 |
| BLOC1S6 (UniProt Q9UL45) | inactive: 0.021 |
| BROX (UniProt Q5VW32) | inactive: 0.039 |
| BAIAP2L1 (UniProt Q9UHR4) | inactive: -0.009 |
| BLOC1S3 (UniProt Q6QNY0) | inactive: -0.027 |
| BNIP1 (UniProt Q12981) | inactive: 0.149 |
| BCOR (UniProt Q6W2J9) | inactive: -0.287 |
| BPTF (UniProt Q12830) | inactive: -0.009 |
| BAG2 (UniProt O95816) | inactive: -0.001 |
| BTF3L4 (UniProt Q96K17) | inactive: -0.031 |
| BARD1 (UniProt Q99728) | inactive: -0.143 |
| BCS1L (UniProt Q9Y276) | inactive: -0.022 |
| BRD4 (UniProt O60885) | inactive: -0.015 |
| BICD2 isoform 2 (UniProt Q8TD16) | inactive: -0.005 |

| Target | log2 fold change |
| --- | --- |
| BLOC1S5 (UniProt Q8TDH9) | inactive: -0.016 |
| BCR (UniProt P11274) | inactive: 0.027 |
| BSDC1 (UniProt Q9NW68) | inactive: -0.026 |
| BRK1 isoform 2 (UniProt Q8WUW1) | inactive: 0.141 |
| BAG1 (UniProt Q99933) | inactive: -0.067 |
| BCAS3 isoform 8 (UniProt Q9H6U6) | inactive: -0.095 |
| BOLA2 (UniProt Q9H3K6) | inactive: 0.078 |
| BRD3 (UniProt Q15059) | inactive: -0.167 |
| BBC3 (UniProt Q9BXH1) | inactive: -0.065 |
| BPGM (UniProt P07738) | inactive: 0.045 |
| BAD (UniProt Q92934) | inactive: -0.018 |
| BAZ1A (UniProt Q9NRL2) | inactive: 0.003 |
| BAP1 (UniProt Q92560) | inactive: -0.034 |
| BAG3 (UniProt O95817) | inactive: -0.007 |
| BANF1 (UniProt O75531) | inactive: 0.044 |
| BCL2L13 (UniProt Q9BXK5) | inactive: -0.027 |
| BRI3BP (UniProt Q8WY22) | inactive: 0.117 |
| BOP1 (UniProt Q14137) | inactive: -0.017 |
